Primary screen of a compound library

Chains of the proteins cited; added tags and fusions are not shown.
UniProt E9BF75, entry or part of it: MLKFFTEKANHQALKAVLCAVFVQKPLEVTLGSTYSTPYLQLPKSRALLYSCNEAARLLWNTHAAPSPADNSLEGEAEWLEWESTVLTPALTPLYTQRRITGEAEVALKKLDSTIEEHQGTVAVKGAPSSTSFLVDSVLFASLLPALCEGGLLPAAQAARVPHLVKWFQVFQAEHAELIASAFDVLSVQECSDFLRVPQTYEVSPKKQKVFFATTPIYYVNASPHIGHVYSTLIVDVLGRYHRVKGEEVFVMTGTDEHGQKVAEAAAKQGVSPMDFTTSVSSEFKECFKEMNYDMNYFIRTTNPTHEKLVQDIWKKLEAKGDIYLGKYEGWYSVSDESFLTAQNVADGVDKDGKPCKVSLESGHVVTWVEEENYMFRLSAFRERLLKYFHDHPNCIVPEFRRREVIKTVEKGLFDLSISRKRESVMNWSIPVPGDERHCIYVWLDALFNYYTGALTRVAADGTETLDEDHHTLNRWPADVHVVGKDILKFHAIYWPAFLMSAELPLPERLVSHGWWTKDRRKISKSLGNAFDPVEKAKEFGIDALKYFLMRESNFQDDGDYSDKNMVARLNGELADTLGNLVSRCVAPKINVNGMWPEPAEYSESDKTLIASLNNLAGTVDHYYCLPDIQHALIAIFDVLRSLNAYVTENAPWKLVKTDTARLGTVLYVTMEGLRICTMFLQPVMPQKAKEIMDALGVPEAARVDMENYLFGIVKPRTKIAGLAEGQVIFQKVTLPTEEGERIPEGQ

A: 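Assay on Mycobacterium tuberculosis, filed only as a heat shock assay from Cornell; the read-out is not stated. The concentration is filed as 10 mM, unlikely as a test dose, so the dose is not known. Higher reads as stronger inhibition (inferred: compounds with an IC50 in retests scored well above the rest). Size under these conditions: about 69,000 compounds, about 930 of them at 50% or above in at least one test.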
B: 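Whole-cell assay for inhibitors of Mycobacterium tuberculosis growth, labelled Cornell in the record; the read-out is not stated. The concentration is filed as 10 mM, unlikely as a test dose, so the dose is not known. The record gives no direction; compounds strong in two other growth screens of this library score well above the rest, so higher reads as stronger inhibition. Size under these conditions: about 53,000 compounds, about 900 of them at 50% or above in at least one test.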
C: 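Methionyl-tRNA synthetase (putative), Leishmania donovani (UniProt E9BF75). Primary screen of methionyl-tRNA synthetase; the read-out is not stated. The test concentration is not given. The values are filed as inhibition. About 68,000 compounds were tested under these conditions; 0.035% (about 24) showed 50% or more at least once.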

Results are percentages, as filed.
How 0% and 100% were set is not recorded. Most values in the screen are low, and negative values occur.
The compounds are a random part of those screened.
A dash means the value is not listed here; it may have been measured.

| # | Compound | A | B | C |
|---|---|---|---|---|
| 1 | `Cc1cc(CN2CCC(CNC(=O)c3ccc(O)c(Cl)c3)C2)[nH]n1` (configuration not stated) | -7.268 | 20.21 | 13.75 |
| 2 | `C1=C(CNC2CCc3ncnn3C2)COc2ccccc21` (configuration not stated) | -22.71 | -58.08 | 8.672 |
| 3 | `Cc1cncc(C2CCCN(C(=O)c3c[nH]c(=O)[nH]c3=O)C2)n1` (configuration not stated) | 2.781 | - | 12.94 |
| 4 | `CCOCC1CN(C(=O)Cc2ccccn2)Cc2cnn(C)c21.O=C(O)C(F)(F)F.O=C(O)C(F)(F)F` (configuration not stated) | -22.32 | 21.67 | - |
| 5 | `Cc1cc2cc(C(=O)N[C@@H]3CC[C@@H](N4CCOCC4)[C@@H]3O)ccc2o1` | -25.67 | 4.647 | 10.62 |
| 6 | `CC(C)C1CN(C(=O)c2ccc(Cl)cn2)CCCN1CC1CC1` (configuration not stated) | -29.24 | 16.04 | 18.75 |
| 7 | `COc1ccc(CN(Cc2cccnc2)CC2CCCO2)c(OC)c1` (configuration not stated) | - | - | 8.014 |
| 8 | `COc1ccc(OC)c(C(C)NS(=O)(=O)c2cnn(C)c2)c1` (configuration not stated) | 9.861 | 19.05 | 16.32 |
| 9 | `CCN1CCN(c2ccc(CNC(=O)c3sccc3C)cn2)CC1` | -19.69 | -0.2907 | 13.01 |
| 10 | `N#Cc1cccc(CN2CCN(Cc3cscn3)CC2)c1` | 9.082 | -14.16 | 14.78 |
| 11 | `CCc1nc(N2CCN(c3ncccc3C#N)CC2)c2cnn(C)c2n1` | -24.82 | - | 12.71 |
| 12 | `CCc1cnc(CN2CCC(N(Cc3noc(CC)n3)C(C)=O)C2)o1` (configuration not stated) | -3.282 | - | 7.606 |
| 13 | `CS(=O)(=O)CCCNC(=O)NC1CC(c2cccc(Cl)c2)C1` (configuration not stated) | 10.94 | -25.13 | 13.71 |
| 14 | `Cc1cccc(C(=O)N2CCc3c(CN(C)C)nn(C)c3C2)n1` | 13.26 | 23.68 | 2.244 |
| 15 | `Nc1nc2c(c(N3CCCC(OCc4ccccn4)C3)n1)CCNCC2` (configuration not stated) | -17.98 | - | 11.75 |
| 16 | `CC(C)c1nc(CSc2nnc(C3CC3)n2CC(N)=O)no1` | -3.28 | 15.19 | 7.627 |
| 17 | `CCC(CO)N(Cc1cccnc1)C(=O)c1ccncc1F` (configuration not stated) | -3.192 | 1.978 | 9.172 |
| 18 | `CCc1oc(C(=O)NC(C)Cc2cnccn2)cc1CN1CCCC1` (configuration not stated) | -0.9278 | -9.37 | 14.86 |
| 19 | `c1cnc(N2CC3(CCN(C4CCOC4)CC3)c3ccccc32)nc1` (configuration not stated) | 2.054 | 36.22 | 21.74 |
| 20 | `COc1ccc(CN2CCn3cc(CN4CCCCC4)nc3C2)cc1.O=C(O)C(F)(F)F.O=C(O)C(F)(F)F` | -5.04 | -12.86 | - |
| 21 | `Cc1ccc(C(=O)N(C)CCNS(C)(=O)=O)cc1Br` | 11.3 | 6.567 | 11.72 |
| 22 | `CC(C)CN1CCC2(C1)CN(S(=O)(=O)c1cn(C)cn1)C2` | - | - | 4.106 |
| 23 | `Cc1cc(CC(=O)NC2CCCN(Cc3ccccc3)C2=O)n[nH]1` (configuration not stated) | -26.51 | -5.186 | 14.24 |
| 24 | `CC(C)c1cc(NCC2(Cn3cccn3)CC2)n2nccc2n1` | 7.125 | 22.58 | 11.8 |
| 25 | `CCCc1noc(C(C)N2CCN(CCn3ccccc3=O)CC2)n1` (configuration not stated) | -26.04 | - | 14.52 |
| 26 | `CCN1CCC2(CC1)CN(C(C)=O)c1ccc(C)cc12` | -13.17 | -26.27 | 13.87 |
| 27 | `CCn1nc2c(cc1=O)CN(Cc1cc(C)on1)CC2` | 2.326 | - | - |
| 28 | `Cc1cnn(CC2CCCCN2CC(=O)Nc2nncs2)c1` (configuration not stated) | 18.17 | 7.305 | 19.23 |
| 29 | `Cc1nn(C)c2c(=O)n(CC(=O)NCCC3=CCCCC3)ccc12` | 9.781 | 26.7 | 16.28 |
| 30 | `Cc1nc[nH]c1C(=O)NCc1cccnc1N(C)C1CCCCC1` | 2.727 | -18 | 4.478 |
| 31 | `Cc1nc(C)n(CC2CCCN(CCc3ccncc3)C2)n1` (configuration not stated) | -4.821 | -39.65 | 9.36 |
| 32 | `CNc1ncc(CN(C)C2CCN(C(C)C)CC2)cn1` | -3.769 | -6.607 | 15.82 |
| 33 | `CCN1CC(CN(C)Cc2nc(-c3cccc(C)c3)oc2C)CC1=O` (configuration not stated) | -14.88 | -3.596 | 15.26 |
| 34 | `CC1c2ncc(Cn3cncn3)n2CCN1C1CCOCC1` (configuration not stated) | - | - | 12.97 |
| 35 | `CN(C)c1ncc2c(O)nc(C3CCNCC3)cc2n1.Cl` | -0.9259 | 11.72 | - |
| 36 | `Cc1cccc2nc(CN3CCCC3Cn3cccn3)cn12` (configuration not stated) | 71.56 | 22.35 | 15.32 |
| 37 | `CCc1ccc(C(=O)N2CCC(c3nncn3CC)CC2)o1` | 12.57 | 14.88 | 17.46 |
| 38 | `Cc1nccc(CNS(=O)(=O)N(C)Cc2ccc(Cl)cc2)n1` | 18.88 | - | 8.635 |
| 39 | `Cc1cc(C)cc(OCC(=O)N2CCCN(CC(N)=O)CC2)c1` | -9.194 | -15.33 | 9.763 |
| 40 | `Cc1ccc(C(=O)N2CCN3C[C@H](Oc4cccnc4)C[C@H]3C2)cn1` | - | - | 10.62 |
| 41 | `CC(C)CSCCN1CCCN(S(C)(=O)=O)CC1` | -0.9555 | 4.114 | -0.8596 |
| 42 | `CN1CCC(Nc2ccc(F)cc2OCC(F)(F)F)C1=O` (configuration not stated) | -5.266 | 24.19 | 9.777 |
| 43 | `CCn1c(CN(C)C)nnc1C1CCN(Cc2ccncc2)CC1` | -11.7 | 4.162 | 8.696 |
| 44 | `O=C(NCc1nc(NC2CCCC2)c2cc(Cl)ccc2n1)c1cncs1` | 11.72 | - | 6.4 |
| 45 | `O=C(CCc1ccsc1)NS(=O)(=O)Cc1ccon1` | 4.215 | 9.719 | 12.04 |
| 46 | `CN(CCNC(=O)c1cnc(-c2ccncc2)nc1)S(C)(=O)=O` | 23.54 | -70.23 | 13.3 |
| 47 | `N#Cc1cccnc1NCCNC(=O)N1CCN2CCCCC2C1` (configuration not stated) | -7.804 | -44.79 | 1.087 |
| 48 | `Cc1nc(Nc2ncccn2)cc(C2CCCN2C(C)C)n1` (configuration not stated) | 2.283 | -81.04 | 13.59 |
| 49 | `Cc1sc2nc(CCN)nc(N3CC(N4CCCCC4)C3)c2c1C` | -13.2 | -10.43 | 7.357 |
| 50 | `Cc1nc(Nc2nnc(C)s2)cc(C2CCCN2S(C)(=O)=O)n1` (configuration not stated) | 8.93 | 2.384 | 9.061 |
| 51 | `CCOc1ncccc1CNC(=O)c1cc(C)on1` | -3.456 | - | 18.71 |
| 52 | `O=C(N[C@@H]1CNCCC[C@H]1O)c1ccc(OCc2ccccc2)cc1` | -25.32 | - | 16.48 |
| 53 | `O=C(O)C(F)(F)F.[H][C@@]12CCCO[C@]1([H])[C@@H](NC(=O)C1CC1)CN2Cc1ccsc1` | 2.811 | 2.307 | - |
| 54 | `O=C(O)C(F)(F)F.O=C(O)C(F)(F)F.[H][C@@]12COC[C@]1(C(=O)NCc1cccnc1)CN(Cc1scnc1C)C2` | 0.03513 | 27.84 | - |
| 55 | `Cn1c(NCC(O)c2ccc(F)cc2F)c(C#N)c(=O)n(C)c1=O` (configuration not stated) | 16.77 | 15.17 | 8.92 |
| 56 | `CN(C)C(=O)CN1C[C@H]2CCN(Cc3ccccc3)CC[C@H]2S1(=O)=O` | - | - | 8.511 |
| 57 | `COCC1CC2(CCN(C(=O)c3ccccc3C)CC2)CN1C(C)C.O=C(O)C(F)(F)F` (configuration not stated) | -20.24 | - | - |
| 58 | `Cc1ccoc1C(=O)N1C[C@@H](N2CCN(C)CC2)[C@H]2OCCC[C@H]21` | - | - | 16.06 |
| 59 | `O=C(O)C(F)(F)F.O=C(O)C(F)(F)F.[H][C@@]12CN(CC3CCOCC3)CCO[C@]1([H])CN(Cc1ccc(C)s1)C2` | -30.9 | 23.5 | - |
| 60 | `O=C1COc2ccc(S(=O)(=O)NC3CC3)c3c2N1CCC3` | -9.905 | -40.87 | 14.29 |
| 61 | `COc1ccc(C(=O)N2CCCC(C)C2)cc1F` (configuration not stated) | -3.263 | -4.81 | 5.882 |
| 62 | `c1ccc(OC[C@]23COC[C@H]2CN(Cc2ccoc2)C3)nc1` | - | - | 15.48 |
| 63 | `Cc1nc(-c2ccccc2)n(CC(=O)NCC(C)C)n1` | 16.73 | 2.176 | 13.73 |
| 64 | `O=C(c1cc(C2CC2)[nH]n1)N1CCN(Cc2ccc3c(c2)OCO3)CC1` | 36.94 | 83.19 | 12.78 |
| 65 | `CCN1CCC(CNC(=O)C2(c3cccc(C)c3)CC2)C1` (configuration not stated) | 9.52 | - | 19.44 |
| 66 | `Cc1ccc(N2CCCC3(CCN(C(=O)c4sccc4C)C3)C2)nn1` (configuration not stated) | -1.833 | -10.86 | 4.482 |
| 67 | `O=C(CSc1ccc(F)cc1)NS(=O)(=O)c1ccc2c(c1)OCCO2` | 9.28 | -7.081 | 1.567 |
| 68 | `CCn1nc(C)cc1C(=O)N1C[C@@H]2C[C@@H](C)O[C@@H]2C1` | - | - | 6.044 |

From ChEMBL document CHEMBL3988442, “University of Dundee, Small-Polar-MMV Screening Library” (2021).